Our source for the binding values is paper PMC7948503, “Optimization of a peptide ligand for the adhesion GPCR ADGRG2 provides a potent tool to explore receptor biology” (The Journal of Biological Chemistry, 2020).

Chains of the proteins cited; added tags and fusions are not shown. Lines headed by an entry give the natural chain unless they say otherwise; changes in a name come on top. A line that says so, or that is headed by a name, gives the form on record, which may keep a tag or linker.
ADGRG2 full-length (ADGRG2-FL)-YFP (Q8CJ12, form named): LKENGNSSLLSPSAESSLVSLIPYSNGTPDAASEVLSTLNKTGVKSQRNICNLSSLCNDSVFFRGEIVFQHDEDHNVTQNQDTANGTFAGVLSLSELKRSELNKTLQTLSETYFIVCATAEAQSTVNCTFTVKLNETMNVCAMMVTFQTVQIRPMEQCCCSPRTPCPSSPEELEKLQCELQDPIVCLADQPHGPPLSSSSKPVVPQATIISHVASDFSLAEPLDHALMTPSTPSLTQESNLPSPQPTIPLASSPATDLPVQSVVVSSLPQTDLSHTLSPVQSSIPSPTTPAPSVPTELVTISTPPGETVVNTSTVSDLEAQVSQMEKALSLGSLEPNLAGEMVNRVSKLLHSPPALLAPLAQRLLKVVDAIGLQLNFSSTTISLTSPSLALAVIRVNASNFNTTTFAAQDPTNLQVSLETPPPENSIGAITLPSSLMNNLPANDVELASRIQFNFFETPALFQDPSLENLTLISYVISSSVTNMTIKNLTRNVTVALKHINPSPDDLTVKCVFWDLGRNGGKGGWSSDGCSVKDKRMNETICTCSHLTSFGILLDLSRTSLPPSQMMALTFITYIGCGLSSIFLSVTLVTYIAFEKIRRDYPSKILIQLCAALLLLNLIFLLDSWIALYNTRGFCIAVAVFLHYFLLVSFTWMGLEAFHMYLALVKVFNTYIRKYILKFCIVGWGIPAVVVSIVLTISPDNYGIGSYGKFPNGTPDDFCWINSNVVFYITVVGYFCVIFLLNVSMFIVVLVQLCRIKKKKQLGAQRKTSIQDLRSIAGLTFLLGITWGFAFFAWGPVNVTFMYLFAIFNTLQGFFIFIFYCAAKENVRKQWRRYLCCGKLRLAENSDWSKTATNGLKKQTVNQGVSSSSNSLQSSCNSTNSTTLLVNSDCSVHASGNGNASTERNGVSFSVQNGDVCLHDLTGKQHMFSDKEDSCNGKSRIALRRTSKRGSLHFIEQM
UniProt P49407: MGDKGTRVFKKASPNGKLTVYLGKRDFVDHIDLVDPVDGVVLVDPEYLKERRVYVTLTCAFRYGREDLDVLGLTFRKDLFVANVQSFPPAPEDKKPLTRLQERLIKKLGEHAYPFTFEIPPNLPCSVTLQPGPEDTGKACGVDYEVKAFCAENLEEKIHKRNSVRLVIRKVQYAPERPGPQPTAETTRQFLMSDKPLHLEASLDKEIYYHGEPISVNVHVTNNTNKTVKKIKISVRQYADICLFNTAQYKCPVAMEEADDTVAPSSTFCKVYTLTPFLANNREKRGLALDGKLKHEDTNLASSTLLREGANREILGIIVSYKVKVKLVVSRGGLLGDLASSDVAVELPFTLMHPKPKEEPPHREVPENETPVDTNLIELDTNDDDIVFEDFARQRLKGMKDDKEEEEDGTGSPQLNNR
UniProt P32121: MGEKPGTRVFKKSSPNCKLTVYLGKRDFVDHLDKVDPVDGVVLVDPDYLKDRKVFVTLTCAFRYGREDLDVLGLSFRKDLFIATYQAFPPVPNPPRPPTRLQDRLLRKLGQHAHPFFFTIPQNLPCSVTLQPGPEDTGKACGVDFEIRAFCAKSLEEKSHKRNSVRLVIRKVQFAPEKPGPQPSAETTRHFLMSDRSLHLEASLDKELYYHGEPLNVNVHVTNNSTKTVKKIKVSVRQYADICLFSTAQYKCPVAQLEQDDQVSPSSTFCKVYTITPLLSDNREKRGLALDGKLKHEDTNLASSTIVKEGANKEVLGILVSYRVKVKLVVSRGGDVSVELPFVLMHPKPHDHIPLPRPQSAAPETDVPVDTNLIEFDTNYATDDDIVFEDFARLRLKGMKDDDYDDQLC

These are yes or no findings as the source states them, for the method shown. Binding seen in cells or lysates may run through a third protein. Some results given as binding are weak or reduced against the parent protein; the word gives no strength.

The target of the assay is ADGRG2 full-length (ADGRG2-FL)-YFP (mouse) (UniProt Q8CJ12). Kind of assay: FRET or BRET; HEK293 cells transiently transfected with ADGRG2-YFP and β-arrestin1-Rluc or β-arrestin2-Rluc; cells in PBS with 0.1% glucose at room temperature, in the presence or absence of ADGRG2 Stachel peptides (p15, VPM-p15) for 1 min; coelenterazine 400a.

Turning to “β-arrestin1-Rluc (from UniProt P49407 1-418)”, the binding result was “binds”.

As for “β-arrestin2-Rluc (from UniProt P32121 1-409)”, the binding entry is reported as “binds”.
